This passage reports binding results from publication PMC4918325, “Mto2 multisite phosphorylation inactivates non-spindle microtubule nucleation complexes during mitosis” (Nature Communications, 2015).

Assay [1] has as its target T1, Mto1-SZZ (protein A-tagged Mto1) (Schizosaccharomyces pombe, UniProt O94488 1-1115).
T1 construct: Mto1, Schizosaccharomyces pombe; Bait of all IgG-bead pulldowns; also called SZZ-tagged Mto1; source: S. pombe, gene tagged by PCR-based methods, in cell extract
T1 sequence (looked up): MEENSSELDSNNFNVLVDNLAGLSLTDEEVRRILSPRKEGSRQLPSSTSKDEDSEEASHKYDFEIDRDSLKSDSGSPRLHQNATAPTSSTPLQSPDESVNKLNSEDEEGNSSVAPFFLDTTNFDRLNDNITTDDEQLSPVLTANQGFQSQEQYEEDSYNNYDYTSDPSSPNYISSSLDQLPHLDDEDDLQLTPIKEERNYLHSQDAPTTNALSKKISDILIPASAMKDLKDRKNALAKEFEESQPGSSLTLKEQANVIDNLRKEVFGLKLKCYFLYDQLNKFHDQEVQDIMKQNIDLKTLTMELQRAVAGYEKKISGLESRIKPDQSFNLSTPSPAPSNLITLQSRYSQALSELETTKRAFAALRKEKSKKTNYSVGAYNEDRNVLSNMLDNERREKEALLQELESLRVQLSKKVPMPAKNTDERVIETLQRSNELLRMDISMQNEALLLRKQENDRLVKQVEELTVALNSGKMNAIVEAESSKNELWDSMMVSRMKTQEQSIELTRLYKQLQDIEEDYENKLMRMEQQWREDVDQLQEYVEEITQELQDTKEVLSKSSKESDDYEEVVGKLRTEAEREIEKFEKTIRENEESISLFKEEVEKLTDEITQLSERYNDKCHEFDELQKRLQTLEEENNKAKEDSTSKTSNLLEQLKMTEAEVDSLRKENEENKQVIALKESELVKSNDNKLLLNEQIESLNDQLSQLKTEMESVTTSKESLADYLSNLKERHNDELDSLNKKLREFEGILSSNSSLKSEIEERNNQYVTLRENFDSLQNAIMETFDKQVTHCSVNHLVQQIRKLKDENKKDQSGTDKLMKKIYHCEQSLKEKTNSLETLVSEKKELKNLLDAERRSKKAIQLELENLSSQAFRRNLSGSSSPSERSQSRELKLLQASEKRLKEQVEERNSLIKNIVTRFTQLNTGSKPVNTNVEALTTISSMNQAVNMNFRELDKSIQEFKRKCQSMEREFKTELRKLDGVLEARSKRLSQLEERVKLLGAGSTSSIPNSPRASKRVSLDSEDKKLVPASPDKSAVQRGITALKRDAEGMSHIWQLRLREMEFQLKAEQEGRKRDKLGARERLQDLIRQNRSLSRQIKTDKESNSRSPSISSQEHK
The experiment in a line: pull-down; IgG-coupled Dynabeads pull Mto1-SZZ from extracts of interphase (asynchronous) S. pombe cells (mto2+, mto2[6A], mto2[13A], mto2[17A], mto2[24A]); 90 min at 4 °C; lysis buffer 25 mM sodium phosphate pH 7.5, 100 mM KCl, 0.5 mM EDTA, 0.2% Triton X-100 with protease and phosphatase …; western blot. (In general: Immunoblotting shows a protein as a band on a membrane.)

Assay [2] addresses T1, Mto1-SZZ (protein A-tagged Mto1). The experiment in a line: condition: only in interphase mto2[24D] and mto2[24E] cells; pull-down; IgG-bead pulldown of Mto1-SZZ from extracts of interphase mto2[24D] and mto2[24E] phosphomimetic cells (Supplementary Fig. 8a); western blot.
The target is the same in assay [3]. The assay can be described thus: pull-down; IgG-coupled Dynabeads pull Mto1-SZZ from extracts of metaphase-arrested mto2-phosphomutant cells (mto2[6A], mto2[13A], mto2[17A], mto2[24A]; nda3-KM311); western blot.

Results are given in words; binding and its absence hold for the method and conditions named. Binding seen in cells or lysates may run through a third protein. Some binding calls cover weakened binding; strength is not graded here. Sequences can lack the tags named with a protein.

B1: Gtb1 (S. pombe γ-tubulin) (natural protein, UniProt P25295 1-446, looked up)
chain: MGREIITLQAGQCGNQIGSQFWQQLCLEHGIGPDGTLESFATEGVDRKDVFFYQSDDTRYIPRAILIDLEPRVVNNILSDTYGSLYNPENILITKNGGGAGNNWANGYSHAERIFEDIMDMIDREADGSDSLEGFSLLHSIAGGTGSGLGSFLLERLNDRYPKKIIQTYSVFPNSQSVSDVVVQPYNSLLALKRLTLNADSVVVLDNAALAHIAADRLHTQNPTFHQQNQLVSTVMSASTTTLRYPGYMNNDLVSIIASLIPSPRCHFLLTSYTPFTNQQVEEAKAIRKTTVLDVMRRLLLPKNQMVSVNPSKKSCFISILDIIQGEADPADVHKSLLRIRERRYASFIPWGPASIQVALSKKSPYIKTNHRVSGLMLANHTSIASLFKRTLDQYDRLRKRNAFLEQYKKEAIFEDDLNEFDSSRDVVADLINEYEACEDPNYLSL
notes: γ-tubulin Gtb1, Schizosaccharomyces pombe; Detected by anti-γ-tubulin blot (GTU-88); also called read-out of the γ-tubulin complex (γ-TuC); source: endogenous, S. pombe cell extract
B1: the values for the binding entry in assay [1], in assay [2] and in assay [3] were “binds”, “no binding” and “binds”, respectively.
